In patent US20150038427A1 one finds binding data, which are given here for one molecule.

Results are given in words; binding and its absence hold for the method and conditions named. A result given as binding can be weak or reduced; the word gives no strength.

In assay [1] the target is collagen. As to the kind of experiment: fluorescence plate binding assay, dansyl peptide on collagen-coated wells, curve fitted to the data of FIG. 3.
Assay [2] addresses collagen. The experiment in a line: fluorescence plate binding assay, dansyl peptide on collagen-coated 96-well high-binding plate, ex/em 335/490 nm.

B1: Dansyl-… (peptide)
peptide: GRRANAALKAGELYKSILYGC
modifications: dansyl on the N-terminal Gly (dansylglycine added to the amine terminus)
As to B1, the binding result in assay [1] and in assay [2] was “binds” in each case.
